Tested on: mouse carcinoma of the colon cells colon 26
Assay: Anticancer effect in vivo against colon 26 (Example 9 A)
Settings: CDFI mice
Protocol: • (A) Evaluationin vivo using mouse carcinoma of the colon cells colon 26 CDFI mice (female : 4 weks age) were bought, and colon 26 subcultured in the subcutaneous tissue of the mouse was taken out, and cut into small pieces by a scissors. The cancer cells were transplanted into subcutaneous tisue of CDFI mice by a trucker. The day was assigned 0 day, and the tumor was measured by a slide caliper after 7 days. The volume of the tumor was calculated, and divided into groups (each group : n = 4). The text compound was dissolved in dimethylsulfoxide, and diluted with 5 % Tween 80- saline aqueous solution. […] The administration was carried out after 7 days, after 11 days and after 15 days or after 7 days and after 8 days from the transplantation at a rate of once per one day. 21st day from the transplantation, the volume of tumor was measured and the volume of tumor and the inhibition against tumor multiplication rate (I.R.) were calculated. The volume of tumor was calculated by the following formula. (Tumore Volume [mm)^3 (]= Minor Axis [mm])^2 × Major Axis [mm] × (1/2) [formula] • The inhibition against tumor multiplication rate (I.R.) was calculated by the following formula. I.R. [%] = {1- (Average Tumor Volume of Administration Group / Average Tumor Volume of Control Group)) × 100 [formula] • (B) Evaluation in vivo using human carcinoma of the colon cells HCT-116 Balb/c nu/nu mice (female : 5 weks age) were bought, and HCT-116 (Dainippon Seiyaku) subcultured in the subcutaneous tissue of the mouse was taken out, and cut into small pieces by a scissors. The cancer cells were transplanted into subcutaneous tissue of […] mice by a trucker. The day was assigned 0 day, and the tumor was measured by a slide caliper after 7 days. The volume of the tumor was calculated, and divided into groups (each group : n = 2). […] 21st day from the transplantation, the volume of tumor was measured and the volume of tumor and the inhibition against tumor multiplication rate (I.R.) were calculated by the above formulas.

## CN1C(=O)[C@]23Cc4cccc(O)c4N2C(=O)[C@]1(CO)SS3 [Compound of Example 4, (3S, 10aR)―2,3―dihydro―6―hydroxy―3―(hydroxymethyl)― 2―methyl―10H―3,10a―epidithiopyrazino[1,2―a]indole― 1,4―dione]
2.5[mg/kg]×3 (i.p.), 7,11,15th days
  day of I.R.Max: 11 days
5 [mg/kg]×3 (i.p.), 7,11,15th days
  day of I.R.Max: 10 days
10 [mg/kg]×2 (i.p.), 7,8th days
  day of I.R.Max: 10 days

— EP0926242A1, “GLIOTOXIN DERIVATIVES AND ANTICANCER AGENT COMPRISING THE SAME” (priority 1996, dated 1998)
